# Counter-ions that a name gives are not always drawn. The list shows a part of the results. This is a noisy data set.
# Tested on: Peyronie's disease tunica albuginea primary fibroblasts
# Assay: inhibition of TGF-beta1-induced alpha-SMA expression (myofibroblast transformation), relative to TGF-beta1-only and untreated controls; higher = stronger inhibition of myofibroblast transformation
# Conditions: 10 µM; TGF-beta1 10 ng/mL; 72 h
row,Structure (SMILES),inhibition of TGF-beta1-induced alpha-SMA expression
1,[O-][n+]1cccc(CO)c1 [Mepiroxol],29.4%
2,COc1ccc(C[C@H](N)C(=O)N[C@H]2[C@@H](O)[C@H](n3cnc4c(N(C)C)ncnc43)O[C@@H]2CO)cc1 [Puromycin 2HCl],> 100%
3,CCC[S+]([O-])c1ccc2[nH]c(NC(=O)OC)nc2c1 (stereo not given) [Albendazole Oxide],33.9%
4,NC(=O)OCC(COC(N)=O)c1ccccc1 [Felbamate],2.92%
5,Cc1ccnc(NS(=O)(=O)c2ccc(N)cc2)n1 [Sulfamerazine],21.3%
6,CC(C)n1c(/C=C/C(O)CC(O)CC(=O)O)c(-c2ccc(F)cc2)c2ccccc21 (stereo not given) [Fluvastatin Sodium],> 100%
7,O=c1ccn([C@@H]2O[C@H](CO)[C@@H](O)[C@H]2O)c(=O)[nH]1 [Uridine],-0.35%
8,CC(C)(C)c1ccc(C(=O)CCCN2CCC(OC(c3ccccc3)c3ccccc3)CC2)cc1 [Ebastine],> 100%
9,C[C@H](Cn1cnc2c(N)ncnc21)OCP(=O)(O)O [Tenofovir],18.5%
10,CCCCNc1cc(C(=O)O)cc(S(N)(=O)=O)c1Oc1ccccc1 [Bumetanide],-19.6%
11,CCOC(=O)[C@H](CCc1ccccc1)N[C@@H](C)C(=O)N(CC(=O)O)C1Cc2ccccc2C1 [Delapril Hydrochloride],3.29%
12,Cn1cc(C(=O)[C@@H]2CCc3[nH]cnc3C2)c2ccccc21 [Ramosetron Hydrochloride],7.79%
13,CC(C)(C)c1nc(-c2cccc(NS(=O)(=O)c3c(F)cccc3F)c2F)c(-c2ccnc(N)n2)s1,88.7%
14,CC(C)(C)c1nc(-c2cccc(NS(=O)(=O)c3c(F)cccc3F)c2F)c(-c2ccnc(N)n2)s1 [Dabrafenib Mesylate],91.5%
15,C[C@H]1O[C@@H](n2cc(F)c(=O)[nH]c2=O)[C@H](O)[C@@H]1O [Doxifluridine],11.3%
16,CC(=O)CCCCn1c(=O)c2c(ncn2C)n(C)c1=O [Pentoxifylline],11.3%
17,CN1C(=O)OC(C)(C)C1=O [Trimethadione],12%
18,Nc1c(CC(=O)O)cccc1C(=O)c1ccc(Br)cc1 [Bromfenac Sodium],58.4%
19,CCCC(CCC)C(=O)O[C@H]1C[C@H]2CC[C@@H](C1)[N+]2(C)C [Anisotropine Methylbromide],13.1%
20,C[C@H](Cc1cc2c(c(C(N)=O)c1)N(CCCO)CC2)NCCOc1ccccc1OCC(F)(F)F [Silodosin],61.2%
21,Cc1onc(-c2c(F)cccc2Cl)c1C(=O)N[C@@H]1C(=O)N2[C@@H]1SC(C)(C)[C@@H]2C(=O)O [Flucloxacillin sodium],-7.01%
22,O=C(NCCN1CCOCC1)c1ccc(Cl)cc1,-15.9%

# Part of the list above, with tabs:
row	Structure (SMILES)	inhibition of TGF-beta1-induced alpha-SMA expression
1	[O-][n+]1cccc(CO)c1 [Mepiroxol]	29.4%
3	CCC[S+]([O-])c1ccc2[nH]c(NC(=O)OC)nc2c1 (stereo not given) [Albendazole Oxide]	33.9%
4	NC(=O)OCC(COC(N)=O)c1ccccc1 [Felbamate]	2.92%
6	CC(C)n1c(/C=C/C(O)CC(O)CC(=O)O)c(-c2ccc(F)cc2)c2ccccc21 (stereo not given) [Fluvastatin Sodium]	> 100%
7	O=c1ccn([C@@H]2O[C@H](CO)[C@@H](O)[C@H]2O)c(=O)[nH]1 [Uridine]	-0.35%
8	CC(C)(C)c1ccc(C(=O)CCCN2CCC(OC(c3ccccc3)c3ccccc3)CC2)cc1 [Ebastine]	> 100%
11	CCOC(=O)[C@H](CCc1ccccc1)N[C@@H](C)C(=O)N(CC(=O)O)C1Cc2ccccc2C1 [Delapril Hydrochloride]	3.29%
12	Cn1cc(C(=O)[C@@H]2CCc3[nH]cnc3C2)c2ccccc21 [Ramosetron Hydrochloride]	7.79%
13	CC(C)(C)c1nc(-c2cccc(NS(=O)(=O)c3c(F)cccc3F)c2F)c(-c2ccnc(N)n2)s1	88.7%
14	CC(C)(C)c1nc(-c2cccc(NS(=O)(=O)c3c(F)cccc3F)c2F)c(-c2ccnc(N)n2)s1 [Dabrafenib Mesylate]	91.5%
15	C[C@H]1O[C@@H](n2cc(F)c(=O)[nH]c2=O)[C@H](O)[C@@H]1O [Doxifluridine]	11.3%
16	CC(=O)CCCCn1c(=O)c2c(ncn2C)n(C)c1=O [Pentoxifylline]	11.3%
17	CN1C(=O)OC(C)(C)C1=O [Trimethadione]	12%
18	Nc1c(CC(=O)O)cccc1C(=O)c1ccc(Br)cc1 [Bromfenac Sodium]	58.4%
21	Cc1onc(-c2c(F)cccc2Cl)c1C(=O)N[C@@H]1C(=O)N2[C@@H]1SC(C)(C)[C@@H]2C(=O)O [Flucloxacillin sodium]	-7.01%
22	O=C(NCCN1CCOCC1)c1ccc(Cl)cc1	-15.9%

# Shown with bars between the fields: part of the list above.
row | Structure (SMILES) | inhibition of TGF-beta1-induced alpha-SMA expression
1 | [O-][n+]1cccc(CO)c1 [Mepiroxol] | 29.4%
2 | COc1ccc(C[C@H](N)C(=O)N[C@H]2[C@@H](O)[C@H](n3cnc4c(N(C)C)ncnc43)O[C@@H]2CO)cc1 [Puromycin 2HCl] | > 100%

# Additional records follow.

row,Structure (SMILES),inhibition of TGF-beta1-induced alpha-SMA expression
1,COc1c(C)c2c(c(O)c1C/C=C(\C)CCC(=O)O)C(=O)OC2 [Mycophenolic acid],14.7%
2,NS(=O)(=O)c1cc(Cl)c(Cl)c(S(N)(=O)=O)c1 [Dichlorphenamide (Diclofenamide)],55.6%
3,CCCCCNC(=N)N/N=C/c1c[nH]c2ccc(OC)cc12 [Tegaserod Maleate],> 100%
4,CC1(C)C[C@@H]1C(=O)N/C(=C\CCCCSC[C@H](N)C(=O)O)C(=O)O [Cilastatin],21.9%
5,CCCCCC(=O)O[C@]1(C(C)=O)CC[C@H]2[C@@H]3CCC4=CC(=O)CC[C@]4(C)[C@H]3CC[C@@]21C [Hydroxyprogesterone caproate],14.8%
6,OC(c1cc(C(F)(F)F)nc2c(C(F)(F)F)cccc12)C1CCCCN1 (stereo not given) [Mefloquine HCl],> 100%
7,CC[C@H]1OC(=O)C[C@@H](O)[C@H](C)[C@@H](O[C@@H]2O[C@H](C)[C@@H](O)[C@H](N(C)C)[C@H]2O)[C@@H](CCN2C[C@H](C)C[C@H](C)C2)C[C@@H](C)C(=O)/C=C/C(C)=C/[C@@H]1CO[C@@H]1O[C@H](C)[C@@H](O)[C@@H](OC)[C@H]1OC [Tilmicosin phosphate],31.5%
8,CC[C@H]1OC(=O)C[C@@H](O)[C@H](C)[C@@H](O[C@@H]2O[C@H](C)[C@@H](O)[C@H](N(C)C)[C@H]2O)[C@@H](CCN2C[C@H](C)C[C@H](C)C2)C[C@@H](C)C(=O)/C=C/C(C)=C/[C@@H]1CO[C@@H]1O[C@H](C)[C@@H](O)[C@@H](OC)[C@H]1OC [Tilmicosin],> 100%
9,CNCCCC12CCC(c3ccccc31)c1ccccc12 [Maprotiline HCl],44.6%
10,CO/N=C(\C(=O)N[C@@H]1C(=O)N2C(C(=O)[O-])=C(C[N+]3(C)CCCC3)CS[C@H]12)c1csc(N)n1 [Cefepime Dihydrochloride Monohydrate],-0.906%
11,C[C@]12C=CC(=O)C=C1CC[C@H]1[C@@H]3C[C@@H](O)[C@](O)(C(=O)CO)[C@@]3(C)C[C@H](O)[C@@]12F [Triamcinolone],81.8%
12,CC1(C)O[C@@H]2C[C@H]3[C@@H]4CCC5=CC(=O)CC[C@]5(C)[C@@]4(F)[C@@H](O)C[C@]3(C)[C@]2(C(=O)CCl)O1 [Halcinonide],73.2%
13,C=C1CCN([C@H](C)[C@](O)(Cn2cncn2)c2ccc(F)cc2F)CC1 [Efinaconazole],30.1%
14,O=C1C(CC[S+]([O-])c2ccccc2)C(=O)N(c2ccccc2)N1c1ccccc1 (racemic) [(+/-)-Sulfinpyrazone],8.42%
15,C[C@@H]1O[C@@H](OC[C@H]2O[C@@H](Oc3c(-c4ccc(OCCO)c(OCCO)c4)oc4cc(OCCO)cc(O)c4c3=O)[C@H](O)[C@@H](O)[C@@H]2O)[C@H](O)[C@H](O)[C@H]1O [Troxerutin],-14.8%
16,CCN(CC)C(=O)/C(C#N)=C/c1cc(O)c(O)c([N+](=O)[O-])c1 [Entacapone],-31%
17,C[C@@H](O)[C@H]1C(=O)N2C(C(=O)O)=C(S[C@@H]3CN[C@H](C(=O)N(C)C)C3)[C@H](C)[C@H]12 [Meropenem Trihydrate],89.8%
18,C[C@@H](O)[C@H]1C(=O)N2C(C(=O)O)=C(S[C@@H]3CN[C@H](C(=O)N(C)C)C3)[C@H](C)[C@H]12 [Meropenem],8.72%
19,COc1ccc(NC(=O)c2ccc(C(=N)N(C)C)cc2)c(C(=O)Nc2ccc(Cl)cn2)c1 [Betrixaban maleate],7.5%
20,COc1ccc(NC(=O)c2ccc(C(=N)N(C)C)cc2)c(C(=O)Nc2ccc(Cl)cn2)c1 [Betrixaban],-4.71%
21,CC(=O)O[C@H]1C[C@@H]2CC[C@@H]3[C@H](CC[C@@]4(C)[C@H]3C[C@H]([N+]3(C)CCCCC3)[C@@H]4OC(C)=O)[C@@]2(C)C[C@@H]1N1CCCCC1 [Vecuronium Bromide],13.1%
22,Cc1cc(C)cc(OCC2CNC(=O)O2)c1 (stereo not given) [Metaxalone],0.64%

row,Structure (SMILES),inhibition of TGF-beta1-induced alpha-SMA expression
1,C#C[C@]1(O)CC[C@H]2[C@@H]3CCc4cc(O)ccc4[C@H]3CC[C@@]21C [Ethinyl Estradiol],50.9%
2,CN[C@@H]1[C@@H](O)[C@@H](O[C@@H]2[C@@H](O)[C@H](O[C@H]3O[C@H](CN)[C@@H](O)[C@H](O)[C@H]3O)[C@@H](N)C[C@H]2NC(=O)[C@@H](O)CN)OC[C@]1(C)O [Isepamicin Sulphate],-9.99%
3,Cc1occc(=O)c1O [Maltol],14%
4,CCc1ccc(Cc2ccc3c(c2)[C@]2(OC3)O[C@H](CO)[C@@H](O)[C@H](O)[C@H]2O)cc1 [Tofogliflozin(CSG 452)],-35.4%
5,CCOC(=O)C1=C(C)NC(C)=C(C(=O)OCC)C1c1ccccc1/C=C/C(=O)OC(C)(C)C [Lacidipine],49.3%
6,CCOc1cc(CC(=O)N[C@@H](CC(C)C)c2ccccc2N2CCCCC2)ccc1C(=O)O [Repaglinide],29.7%
7,CC(=O)OCC(=O)[C@@]1(O)[C@H](C)C[C@H]2[C@@H]3CCC4=CC(=O)C=C[C@]4(C)[C@@]3(F)[C@@H](O)C[C@@]21C [Dexamethasone Acetate],89.5%
8,COc1ncnc(NS(=O)(=O)c2ccc(N)cc2)c1OC [Sulfadoxine],35.5%
9,COc1ccc(C(=O)c2ccccc2)c(O)c1 [Oxybenzone],1.2%
10,COc1c(N2C[C@@H]3CCCN[C@@H]3C2)c(F)cc2c(=O)c(C(=O)O)cn(C3CC3)c12 [Moxifloxacin],13.5%
11,COc1c(N2C[C@@H]3CCCN[C@@H]3C2)c(F)cc2c(=O)c(C(=O)O)cn(C3CC3)c12 [Moxifloxacin HCl],-13.8%
12,CCCCOC(=O)c1ccccc1Nc1cccc(C(F)(F)F)c1 [Ufenamate],52.2%
13,COc1ccc(C(=O)CC(=O)c2ccc(C(C)(C)C)cc2)cc1 [Avobenzone],17.7%
14,Nc1nc2c(ncn2COCCO)c(=O)[nH]1 [Aciclovir],7.62%
15,COc1ccc2[nH]c([S@@+]([O-])Cc3ncc(C)c(OC)c3C)nc2c1 [NEXIUM (esomeprazole magnesium)],1.03%
16,COc1ccc2[nH]c([S@@+]([O-])Cc3ncc(C)c(OC)c3C)nc2c1 [Esomeprazole sodium],-13%
17,CS(=O)(=O)N1CCN(Cc2cc3nc(-c4cccc5[nH]ncc45)nc(N4CCOCC4)c3s2)CC1 [Pictilisib (GDC-0941)],73%
18,CC(C)NCC(O)c1ccc(O)c(O)c1 (stereo not given) [Isoprenaline HCl],23.7%
19,CCCCC(CC)COC(=O)C=Cc1ccc(OC)cc1 (stereo not given) [Octinoxate],30.7%
20,CCOc1ccc(Cc2cc([C@]34OC[C@](CO)(O3)[C@@H](O)[C@H](O)[C@H]4O)ccc2Cl)cc1 [Ertugliflozin],47.2%
21,CCCC1O[C@@H]2C[C@H]3[C@@H]4CCC5=CC(=O)C=C[C@]5(C)[C@H]4[C@@H](O)C[C@]3(C)[C@]2(C(=O)CO)O1 (stereo not given in full) [Budesonide],34.1%

# From the supplement of paper PMC9744312
